Like-named read-outs stand apart in the source and are kept apart here. These are yes or no findings as the source states them, for the method shown. Some results given as binding are weak or reduced against the parent protein; the word gives no strength.
How the values were obtained:
[1] = target: BSB PyV-LTA;NLS peptide (Black Sea Bass polyomavirus large tumor antigen residues 660-683) (Black Sea Bass polyomavirus); experiment: fluorescence polarisation
[2] = substrate: BSB PyV-LTA;NLS peptide (Black Sea Bass polyomavirus large tumor antigen residues 660-683) (Black Sea Bass polyomavirus); experiment: fluorescence polarisation; remark: listed apart in the source

Chains of the proteins cited; added tags and fusions are not shown.
UniProt Q14974: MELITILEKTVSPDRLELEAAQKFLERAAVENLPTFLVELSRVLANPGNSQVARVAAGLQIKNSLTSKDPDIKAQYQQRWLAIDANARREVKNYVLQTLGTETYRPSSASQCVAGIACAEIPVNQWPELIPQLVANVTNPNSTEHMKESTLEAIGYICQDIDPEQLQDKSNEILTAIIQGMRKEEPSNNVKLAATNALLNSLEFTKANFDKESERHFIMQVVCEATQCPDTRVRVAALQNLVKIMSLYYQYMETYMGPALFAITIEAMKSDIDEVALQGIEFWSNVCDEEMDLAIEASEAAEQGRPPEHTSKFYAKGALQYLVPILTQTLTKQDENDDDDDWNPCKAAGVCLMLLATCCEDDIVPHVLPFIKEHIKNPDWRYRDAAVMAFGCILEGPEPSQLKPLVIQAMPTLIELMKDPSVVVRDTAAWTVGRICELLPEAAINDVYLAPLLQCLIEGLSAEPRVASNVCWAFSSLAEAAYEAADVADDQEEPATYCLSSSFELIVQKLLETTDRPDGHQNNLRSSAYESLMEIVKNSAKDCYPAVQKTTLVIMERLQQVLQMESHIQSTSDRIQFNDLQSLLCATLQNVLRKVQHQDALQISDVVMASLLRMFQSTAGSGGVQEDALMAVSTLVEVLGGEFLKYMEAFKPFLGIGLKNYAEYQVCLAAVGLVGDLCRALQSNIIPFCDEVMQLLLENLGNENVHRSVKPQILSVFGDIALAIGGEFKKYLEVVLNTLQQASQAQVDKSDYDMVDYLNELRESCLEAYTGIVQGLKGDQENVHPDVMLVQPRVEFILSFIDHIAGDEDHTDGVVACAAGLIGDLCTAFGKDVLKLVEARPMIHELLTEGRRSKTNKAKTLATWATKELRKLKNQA
UniProt Q92973: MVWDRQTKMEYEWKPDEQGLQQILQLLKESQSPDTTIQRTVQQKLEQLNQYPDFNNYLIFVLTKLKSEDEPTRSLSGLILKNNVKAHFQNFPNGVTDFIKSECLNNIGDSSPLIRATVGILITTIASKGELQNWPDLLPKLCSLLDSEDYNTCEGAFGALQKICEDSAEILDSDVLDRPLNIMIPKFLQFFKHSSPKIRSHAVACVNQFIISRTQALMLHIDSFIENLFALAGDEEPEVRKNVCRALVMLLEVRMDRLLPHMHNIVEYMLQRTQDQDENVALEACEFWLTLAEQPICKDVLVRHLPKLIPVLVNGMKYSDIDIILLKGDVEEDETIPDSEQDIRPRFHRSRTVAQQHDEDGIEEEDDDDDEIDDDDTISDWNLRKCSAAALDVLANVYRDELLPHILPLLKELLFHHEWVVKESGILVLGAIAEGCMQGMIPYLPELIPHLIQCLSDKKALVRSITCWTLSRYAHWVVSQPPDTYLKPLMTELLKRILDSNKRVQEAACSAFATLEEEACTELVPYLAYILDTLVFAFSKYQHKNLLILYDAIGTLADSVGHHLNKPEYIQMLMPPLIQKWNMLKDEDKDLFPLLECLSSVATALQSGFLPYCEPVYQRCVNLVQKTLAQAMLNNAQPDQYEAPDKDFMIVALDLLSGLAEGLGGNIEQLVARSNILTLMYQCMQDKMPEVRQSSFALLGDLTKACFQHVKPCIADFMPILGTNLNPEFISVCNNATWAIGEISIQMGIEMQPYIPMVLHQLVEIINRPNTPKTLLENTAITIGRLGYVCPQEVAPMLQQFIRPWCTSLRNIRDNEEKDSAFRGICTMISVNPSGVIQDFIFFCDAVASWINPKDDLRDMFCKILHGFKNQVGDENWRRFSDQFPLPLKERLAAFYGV

## human importin β1 (from UniProt Q14974 1-876)
[1]
  binding: binds weakly

## human importin β2 (from UniProt Q92973 1-898)
[1]
  binding: binds weakly

B1: human importin β3 (protein, UniProt O00410 1-1097)
chain: MAAAAAEQQQFYLLLGNLLSPDNVVRKQAEETYENIPGQSKITFLLQAIRNTTAAEEARQMAAVLLRRLLSSAFDEVYPALPSDVQTAIKSELLMIIQMETQSSMRKKVCDIAAELARNLIDEDGNNQWPEGLKFLFDSVSSQNVGLREAALHIFWNFPGIFGNQQQHYLDVIKRMLVQCMQDQEHPSIRTLSARATAAFILANEHNVALFKHFADLLPGFLQAVNDSCYQNDDSVLKSLVEIADTVPKYLRPHLEATLQLSLKLCGDTSLNNMQRQLALEVIVTLSETAAAMLRKHTNIVAQTIPQMLAMMVDLEEDEDWANADELEDDDFDSNAVAGESALDRMACGLGGKLVLPMIKEHIMQMLQNPDWKYRHAGLMALSAIGEGCHQQMEGILNEIVNFVLLFLQDPHPRVRYAACNAVGQMATDFAPGFQKKFHEKVIAALLQTMEDQGNQRVQAHAAAALINFTEDCPKSLLIPYLDNLVKHLHSIMVLKLQELIQKGTKLVLEQVVTSIASVADTAEEKFVPYYDLFMPSLKHIVENAVQKELRLLRGKTIECISLIGLAVGKEKFMQDASDVMQLLLKTQTDFNDMEDDDPQISYMISAWARMCKILGKEFQQYLPVVMGPLMKTASIKPEVALLDTQDMENMSDDDGWEFVNLGDQQSFGIKTAGLEEKSTACQMLVCYAKELKEGFVEYTEQVVKLMVPLLKFYFHDGVRVAAAESMPLLLECARVRGPEYLTQMWHFMCDALIKAIGTEPDSDVLSEIMHSFAKCIEVMGDGCLNNEHFEELGGILKAKLEEHFKNQELRQVKRQDEDYDEQVEESLQDEDDNDVYILTKVSDILHSIFSSYKEKVLPWFEQLLPLIVNLICPHRPWPDRQWGLCIFDDVIEHCSPASFKYAEYFLRPMLQYVCDNSPEVRQAAAYGLGVMAQYGGDNYRPFCTEALPLLVRVIQSADSKTKENVNATENCISAVGKIMKFKPDCVNVEEVLPHWLSWLPLHEDKEEAVQTFNYLCDLIESNHPIVLGPNNTNLPKIFSIIAEGEMHEAIKHEDPCAKRLANVVRQVQTSGGLWTECIAQLSPEQQAAIQELLNSA
[2]
  binding: binds weakly
